# Experimental data: the supplement of paper PMC9135407
# Values joined by “and” are separate entries in the source; they are usually repeats but may differ in a detail not shown here. Identical values can stand only once. Counter-ions that a name gives are not always drawn. ± gives the standard deviation of the averaged measurements. The list shows a part of the results. Part of the spread comes from offsets between plates or batches.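 Assay uses culture-activated primary human stellate myofibroblasts; lipid droplet recovery indicates inactivation. Measured: proportion of Hoechst-counted cells over a plate-specific Bodipy cutoff, duplicate wells, DMSO and nortriptyline as per-plate negative and positive controls. A hit scores, control-normalized, above the plate's top-tenth-percentile nortriptyline wells or ranks among its three best wells. Final well concentrations not reported.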
# Test system: primary human hepatic stellate cells (donor 1)
# Assay: percent Bodipy-positive cells; higher = more lipid droplet accumulation
# Settings: 48 h
# Protocol: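 Primary lipid accumulation screen in primary human hepatic stellate cell myofibroblasts (donor 1, passage 8) in 384-well plates. 100 nL of library compound was pin-transferred into 30 µL medium in duplicate, and cells were treated for 48 h. The 'Scaled' score combines distance from plate baseline, toxicity and reproducibility penalties, and is normalised to nortriptyline (positive) and DMSO (negative) controls on each plate. A hit is defined as scaled >0.85 or among the top 3 wells per plate.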
# [1] = library stock concentration: 10 mM
# [2] = library stock concentration: 3.33 mM
# [3] = library stock concentration: 80 uM
# [4] = library stock concentration: 400 uM
# [5] = library stock concentration: 2 mM
structure (smiles),measurement,setting,value
N[C@@H](Cc1c[nH]c2ccc(O)cc12)C(=O)O [5-Hydroxy-L-tryptophan],percent Bodipy-positive cells,[1],44 ± 14%
CC(=O)Nc1nc2c(Oc3cc(-c4ccc(C(F)(F)F)cc4)ncn3)cccc2s1,percent Bodipy-positive cells,[2],26.1 ± 1.6%
same,percent Bodipy-positive cells,[1],21.3 ± 1.3%
O=C(O)Cc1nn(Cc2ccc(Br)cc2F)c(=O)c2ccccc12 [Statil],percent Bodipy-positive cells,[1],8.83 ± 1.9%
CC(C)n1nc(-c2ccc3oc(N)nc3c2)c2c(N)ncnc21,percent Bodipy-positive cells,[3],5.6 ± 1.3%
same,percent Bodipy-positive cells,[4],4.6 ± 3.2%
same,percent Bodipy-positive cells,[5],7.86 ± 4.8%
same,percent Bodipy-positive cells,[2],4.04 ± 1.9%
same,percent Bodipy-positive cells,[1],12.6% and 8.67%
COc1cc(C)c(Sc2cnc(NC(=O)c3ccc(CNC(C)C(C)(C)C)cc3)s2)cc1C(=O)N1CCN(C(C)=O)CC1 (stereo not given),percent Bodipy-positive cells,[3],18 ± 5.5%
same,percent Bodipy-positive cells,[4],20.9 ± 8.8%
same,percent Bodipy-positive cells,[5],28.2 ± 7.9%
same,percent Bodipy-positive cells,[1],74.9 ± 3.4%
"Cc1cc(C(C)(C)C)c(O)c(C(C)(C)C)c1 [2,6-di-t-butyl-4-methylphenol]",percent Bodipy-positive cells,library stock concentration: 9.1 mM,17.9 ± 1.8%
COc1ccc(-c2cc(=S)ss2)cc1 [Anethole-trithione (anetholtrithion)],percent Bodipy-positive cells,library stock concentration: 8.3 mM,8.46 ± 0.51%
COc1ccc(NS(=O)(=O)c2sc3ccc(Cl)cc3c2C)cc1N1CCNCC1,percent Bodipy-positive cells,[2],39.1 ± 2.3%
C#CCN[C@@H]1CCc2ccccc21 [Rasagiline Mesylate],percent Bodipy-positive cells,[2],14.1 ± 2.6%
same,percent Bodipy-positive cells,[1],18.8 ± 6.6%
C#CCN[C@@H]1CCc2ccccc21,percent Bodipy-positive cells,[1],28 ± 6.3%
"Cn1c(=O)[nH]c2ncn(C)c2c1=O [1,7-Dimethylxanthine]",percent Bodipy-positive cells,[1],34 ± 2.7%
N#C/C(=C\c1ccc(O)c(O)c1)C(=O)OCCc1cccs1,percent Bodipy-positive cells,[1],5.98 ± 3.8%
COc1cc(OC2CCN(C)CC2)ccc1Nc1ncc2c(n1)n(C1CCCC1)c(=O)n2C,percent Bodipy-positive cells,[2],47.8 ± 7.9%
C1COC(NC(C2CC2)C2CC2)=N1 [Rilmenidine hemifumarate],percent Bodipy-positive cells,[1],15.5% and 5.6%
O=c1c(-c2ccccc2)c1-c1ccccc1 [diphenylcyclopropenone],percent Bodipy-positive cells,[1],99.28 ± 0.43%
CCOc1nc2cccc(C(=O)OCc3oc(=O)oc3C)c2n1Cc1ccc(-c2ccccc2-c2noc(=O)[nH]2)cc1 [Azilsartan Medoxomil],percent Bodipy-positive cells,[2],12.8 ± 8.6%
same,percent Bodipy-positive cells,[1],7.18 ± 1.6%
CN1CCN(C2CCN(C(=O)Nc3cc(Oc4ccc(NC(=O)C5(C(=O)Nc6ccc(F)cc6)CC5)c(F)c4)ccn3)CC2)CC1 [Golvatinib (E7050)],percent Bodipy-positive cells,[2],83.979 ± 0.052%
OC[C@H]1O[C@@H](n2cnc3c(NC4CCCC4)ncnc32)[C@H](O)[C@@H]1O [N6-Cyclopentyladenosine],percent Bodipy-positive cells,[1],30.7% and 7.76%
CN1c2cc(O)c(N=NC(N)=O)cc2CC1S(=O)(=O)O (stereo not given) [Carbazochrome sodium sulfonate (AC-17)],percent Bodipy-positive cells,[2],7.4 ± 3.3%
same,percent Bodipy-positive cells,[1],8.27 ± 4.5%
COc1cc2ncn(-c3cc(OCc4ccccc4C(F)(F)F)c(C(N)=O)s3)c2cc1OC,percent Bodipy-positive cells,[3],10.6 ± 8.9%
same,percent Bodipy-positive cells,[4],13.4 ± 2.6%
same,percent Bodipy-positive cells,[5],13 ± 4.5%
same,percent Bodipy-positive cells,[1],74.2 ± 8.8%
C[N+](C)(C)CC=O [Betaine aldehyde chloride],percent Bodipy-positive cells,[1],48.1 ± 2.4%
Cn1cc(C2=C(c3ccc(Cl)cc3Cl)C(=O)NC2=O)c2ccccc21,percent Bodipy-positive cells,[5],82.3 ± 5%
same,percent Bodipy-positive cells,[1],91.5 ± 1%
CC1(C)CCC(C)(C)c2cc(C3(c4ccc(C(=O)O)cc4)OCCO3)ccc21,percent Bodipy-positive cells,[1],9.28 ± 2.6%
O=C(O)c1cn(C2CC2)c2cc(N3CCNCC3)c(F)cc2c1=O [Ciprofloxacin hydrochloride],percent Bodipy-positive cells,,17.06 ± 0.099%
O=C(O)c1cn(C2CC2)c2cc(N3CCNCC3)c(F)cc2c1=O [Ciprofloxacin],percent Bodipy-positive cells,library stock concentration: 6 mM,7.36% and 8.83%
same,percent Bodipy-positive cells,[1],47.2 ± 5.6%
CCCn1c(=O)[nH]c(=O)c2[nH]cnc21 [3-n-Propylxanthine],percent Bodipy-positive cells,[1],24.2 ± 8.7%
COc1cccc(-c2cc(F)ccc2[C@H]2Cc3nc(N)nc(C)c3C(=O)N2)n1,percent Bodipy-positive cells,[1],92.57 ± 0.47%
CC(C)NCC(O)COc1ccc(CCOCC2CC2)cc1 (stereo not given) [Betaxolol hydrochloride],percent Bodipy-positive cells,,63.2 ± 3.9%
CC(C)NCC(O)COc1ccc(CCOCC2CC2)cc1 (stereo not given) [Betaxolol],percent Bodipy-positive cells,[2],21.1 ± 6.1%
same,percent Bodipy-positive cells,[1],32.4 ± 1.9%
CC(C)NCC(O)COc1ccc(CCOCC2CC2)cc1 (stereo not given),percent Bodipy-positive cells,[1],41.8 ± 1.8%
CC(=O)[C@@]1(O)CC[C@H]2[C@@H]3C[C@H](C)C4=CC(=O)C=C[C@]4(C)[C@@]3(F)[C@@H](O)C[C@@]21C [Fluorometholone],percent Bodipy-positive cells,,9.08 ± 1%
same,percent Bodipy-positive cells,library stock concentration: 5.3 mM,1.56 ± 0.31%
same,percent Bodipy-positive cells,[1],7.21% and 26.6%
Cc1c(C(=O)NN2CCCCC2)nn(-c2ccc(Cl)cc2Cl)c1-c1ccc(I)cc1,percent Bodipy-positive cells,library stock concentration: 1 mM,9.51% and 17%
same,percent Bodipy-positive cells,[2],9.14 ± 1.1%
same,percent Bodipy-positive cells,[1],11.3% and 30% and 10.2%
CCc1nc(N)nc(N)c1-c1ccc(Cl)cc1 [Pyrimethamine],percent Bodipy-positive cells,,43.5 ± 12%
same,percent Bodipy-positive cells,[2],15.48 ± 0.13%
same,percent Bodipy-positive cells,library stock concentration: 8 mM,28.9 ± 0.45%
same,percent Bodipy-positive cells,[1],28.8% and 17%
CCc1nc(N)nc(N)c1-c1ccc(Cl)cc1,percent Bodipy-positive cells,[1],40.2 ± 10%
Cl.O=C([O-])c1ccc(-c2c3nc(c(-c4ccc(C(=O)O)cc4)c4nc(c(-c5ccc(C(=O)O)cc5)c5ccc([nH]5)c(-c5ccc(C(=O)[O-])cc5)c5ccc2[n-]5)C=C4)C=C3)cc1.[Mn+3] [MnTBAP chloride],percent Bodipy-positive cells,library stock concentration: 5.7 mM,14.7 ± 4.3%
Cl.N/C(=N\C(=O)c1nc(Cl)c(N)nc1N)NCc1ccccc1 [Benzamil hydrochloride],percent Bodipy-positive cells,[1],98.73 ± 0.98%
